The supplement of paper PMC10849652
The other results are listed elsewhere or left out.

Sequences of proteins named here, by UniProt entry; tags and fusion partners are left off. A change or cut given only in a name is not applied to a line headed by its entry.
UniProt Q00169: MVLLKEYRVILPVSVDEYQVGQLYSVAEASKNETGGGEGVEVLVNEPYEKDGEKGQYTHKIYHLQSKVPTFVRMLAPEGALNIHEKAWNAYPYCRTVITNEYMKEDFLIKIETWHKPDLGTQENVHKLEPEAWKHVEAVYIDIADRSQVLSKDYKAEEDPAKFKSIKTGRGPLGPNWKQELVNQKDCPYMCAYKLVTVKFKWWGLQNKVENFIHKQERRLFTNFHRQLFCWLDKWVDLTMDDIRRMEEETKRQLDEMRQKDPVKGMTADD
UniProt P14618, whole entry, looked up: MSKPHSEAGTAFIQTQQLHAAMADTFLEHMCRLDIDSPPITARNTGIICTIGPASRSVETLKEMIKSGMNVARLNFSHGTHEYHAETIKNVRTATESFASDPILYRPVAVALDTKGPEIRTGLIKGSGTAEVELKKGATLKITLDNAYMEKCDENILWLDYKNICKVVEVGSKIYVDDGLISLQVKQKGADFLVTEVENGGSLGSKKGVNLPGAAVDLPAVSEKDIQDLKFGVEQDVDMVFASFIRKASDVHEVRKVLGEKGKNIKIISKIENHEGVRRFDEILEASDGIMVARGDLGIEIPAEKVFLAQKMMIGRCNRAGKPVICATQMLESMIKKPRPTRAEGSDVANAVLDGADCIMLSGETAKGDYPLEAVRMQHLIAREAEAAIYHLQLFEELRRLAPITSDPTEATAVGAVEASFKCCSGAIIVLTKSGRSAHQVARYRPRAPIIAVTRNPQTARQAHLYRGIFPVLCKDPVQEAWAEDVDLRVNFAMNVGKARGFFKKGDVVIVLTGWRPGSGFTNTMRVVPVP
UniProt P12273: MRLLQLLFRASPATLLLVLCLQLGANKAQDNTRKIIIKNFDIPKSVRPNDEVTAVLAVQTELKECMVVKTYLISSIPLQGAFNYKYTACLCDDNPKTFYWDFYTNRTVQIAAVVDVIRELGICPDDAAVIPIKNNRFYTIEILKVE
UniProt Q9BUL5: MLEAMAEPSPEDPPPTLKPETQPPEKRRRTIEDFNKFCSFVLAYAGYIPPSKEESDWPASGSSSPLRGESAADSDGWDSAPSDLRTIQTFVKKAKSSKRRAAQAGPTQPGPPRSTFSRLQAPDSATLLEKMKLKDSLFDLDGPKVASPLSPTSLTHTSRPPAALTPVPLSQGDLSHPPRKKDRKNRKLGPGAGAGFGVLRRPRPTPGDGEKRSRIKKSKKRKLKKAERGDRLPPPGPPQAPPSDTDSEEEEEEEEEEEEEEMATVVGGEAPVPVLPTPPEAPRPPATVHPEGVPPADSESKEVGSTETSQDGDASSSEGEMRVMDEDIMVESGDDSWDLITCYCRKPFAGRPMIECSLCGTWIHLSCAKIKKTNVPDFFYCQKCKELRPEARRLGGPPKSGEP
UniProt P48739: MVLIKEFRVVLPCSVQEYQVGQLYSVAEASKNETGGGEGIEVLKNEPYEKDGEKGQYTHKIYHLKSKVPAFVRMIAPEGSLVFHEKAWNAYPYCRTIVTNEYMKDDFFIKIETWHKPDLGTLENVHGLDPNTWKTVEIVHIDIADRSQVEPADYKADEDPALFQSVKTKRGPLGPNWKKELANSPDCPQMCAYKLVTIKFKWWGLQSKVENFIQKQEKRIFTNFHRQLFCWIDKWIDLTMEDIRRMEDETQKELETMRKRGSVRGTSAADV
UniProt Q96BK5: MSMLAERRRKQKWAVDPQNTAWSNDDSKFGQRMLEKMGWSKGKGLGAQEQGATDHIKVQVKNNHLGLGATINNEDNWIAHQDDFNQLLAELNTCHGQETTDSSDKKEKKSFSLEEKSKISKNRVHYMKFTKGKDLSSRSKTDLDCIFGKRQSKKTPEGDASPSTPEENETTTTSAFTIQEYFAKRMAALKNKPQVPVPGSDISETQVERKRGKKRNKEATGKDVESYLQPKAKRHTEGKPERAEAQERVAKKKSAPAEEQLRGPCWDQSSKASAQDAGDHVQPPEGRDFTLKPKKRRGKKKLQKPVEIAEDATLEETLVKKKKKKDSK
UniProt P35232: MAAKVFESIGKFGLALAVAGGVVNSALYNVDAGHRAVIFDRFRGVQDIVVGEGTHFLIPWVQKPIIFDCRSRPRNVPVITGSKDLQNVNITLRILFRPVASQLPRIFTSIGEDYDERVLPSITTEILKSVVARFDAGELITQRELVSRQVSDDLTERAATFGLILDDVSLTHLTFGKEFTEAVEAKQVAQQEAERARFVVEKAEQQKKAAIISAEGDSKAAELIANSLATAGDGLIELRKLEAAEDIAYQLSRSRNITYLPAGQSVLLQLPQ
UniProt Q9NRX4: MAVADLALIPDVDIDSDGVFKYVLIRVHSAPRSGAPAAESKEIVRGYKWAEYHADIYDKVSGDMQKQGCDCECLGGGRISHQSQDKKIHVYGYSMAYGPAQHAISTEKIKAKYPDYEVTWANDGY
UniProt Q8IWS0: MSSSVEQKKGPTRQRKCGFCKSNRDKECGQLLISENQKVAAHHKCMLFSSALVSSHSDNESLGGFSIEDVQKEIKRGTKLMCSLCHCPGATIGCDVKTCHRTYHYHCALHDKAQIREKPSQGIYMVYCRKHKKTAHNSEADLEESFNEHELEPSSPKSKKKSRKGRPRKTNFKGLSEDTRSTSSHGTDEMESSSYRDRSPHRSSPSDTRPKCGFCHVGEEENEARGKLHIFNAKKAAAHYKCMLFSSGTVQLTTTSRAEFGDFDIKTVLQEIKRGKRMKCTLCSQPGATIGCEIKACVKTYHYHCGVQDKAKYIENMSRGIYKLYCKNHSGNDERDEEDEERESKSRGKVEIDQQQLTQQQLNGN
UniProt Q99570, whole entry, looked up: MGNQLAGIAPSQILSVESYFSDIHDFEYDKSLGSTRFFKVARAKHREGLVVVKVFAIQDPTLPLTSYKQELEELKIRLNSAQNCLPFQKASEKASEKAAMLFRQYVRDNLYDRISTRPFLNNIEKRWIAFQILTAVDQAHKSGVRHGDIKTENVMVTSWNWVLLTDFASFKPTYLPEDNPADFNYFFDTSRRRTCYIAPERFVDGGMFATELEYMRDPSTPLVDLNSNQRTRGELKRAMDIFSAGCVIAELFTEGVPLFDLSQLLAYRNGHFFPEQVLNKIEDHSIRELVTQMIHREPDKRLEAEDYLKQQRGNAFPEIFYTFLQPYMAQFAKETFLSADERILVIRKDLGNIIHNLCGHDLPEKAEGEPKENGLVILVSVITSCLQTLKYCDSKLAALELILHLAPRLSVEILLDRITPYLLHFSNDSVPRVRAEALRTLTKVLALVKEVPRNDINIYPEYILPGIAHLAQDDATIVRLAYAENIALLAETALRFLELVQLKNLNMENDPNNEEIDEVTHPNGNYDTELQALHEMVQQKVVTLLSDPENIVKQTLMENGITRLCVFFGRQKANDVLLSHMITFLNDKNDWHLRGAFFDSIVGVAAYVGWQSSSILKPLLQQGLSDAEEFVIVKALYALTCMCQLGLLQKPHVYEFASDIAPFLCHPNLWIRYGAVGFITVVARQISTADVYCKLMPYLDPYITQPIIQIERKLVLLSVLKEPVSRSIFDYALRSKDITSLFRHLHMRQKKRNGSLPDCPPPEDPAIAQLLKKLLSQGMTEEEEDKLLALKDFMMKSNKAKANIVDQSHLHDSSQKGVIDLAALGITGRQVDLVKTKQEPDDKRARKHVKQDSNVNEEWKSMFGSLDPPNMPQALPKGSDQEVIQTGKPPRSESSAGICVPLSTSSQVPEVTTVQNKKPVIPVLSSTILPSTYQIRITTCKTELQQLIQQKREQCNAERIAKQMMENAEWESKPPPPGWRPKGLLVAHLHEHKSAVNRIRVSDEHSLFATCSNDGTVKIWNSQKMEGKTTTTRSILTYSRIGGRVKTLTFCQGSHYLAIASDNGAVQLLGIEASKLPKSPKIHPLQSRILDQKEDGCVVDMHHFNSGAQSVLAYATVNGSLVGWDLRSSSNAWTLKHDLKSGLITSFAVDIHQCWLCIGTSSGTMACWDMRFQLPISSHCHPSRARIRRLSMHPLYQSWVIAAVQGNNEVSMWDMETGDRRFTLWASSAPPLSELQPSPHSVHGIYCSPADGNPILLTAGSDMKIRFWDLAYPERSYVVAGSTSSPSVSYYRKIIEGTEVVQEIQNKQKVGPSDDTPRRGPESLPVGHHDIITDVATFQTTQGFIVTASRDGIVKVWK
UniProt P17858: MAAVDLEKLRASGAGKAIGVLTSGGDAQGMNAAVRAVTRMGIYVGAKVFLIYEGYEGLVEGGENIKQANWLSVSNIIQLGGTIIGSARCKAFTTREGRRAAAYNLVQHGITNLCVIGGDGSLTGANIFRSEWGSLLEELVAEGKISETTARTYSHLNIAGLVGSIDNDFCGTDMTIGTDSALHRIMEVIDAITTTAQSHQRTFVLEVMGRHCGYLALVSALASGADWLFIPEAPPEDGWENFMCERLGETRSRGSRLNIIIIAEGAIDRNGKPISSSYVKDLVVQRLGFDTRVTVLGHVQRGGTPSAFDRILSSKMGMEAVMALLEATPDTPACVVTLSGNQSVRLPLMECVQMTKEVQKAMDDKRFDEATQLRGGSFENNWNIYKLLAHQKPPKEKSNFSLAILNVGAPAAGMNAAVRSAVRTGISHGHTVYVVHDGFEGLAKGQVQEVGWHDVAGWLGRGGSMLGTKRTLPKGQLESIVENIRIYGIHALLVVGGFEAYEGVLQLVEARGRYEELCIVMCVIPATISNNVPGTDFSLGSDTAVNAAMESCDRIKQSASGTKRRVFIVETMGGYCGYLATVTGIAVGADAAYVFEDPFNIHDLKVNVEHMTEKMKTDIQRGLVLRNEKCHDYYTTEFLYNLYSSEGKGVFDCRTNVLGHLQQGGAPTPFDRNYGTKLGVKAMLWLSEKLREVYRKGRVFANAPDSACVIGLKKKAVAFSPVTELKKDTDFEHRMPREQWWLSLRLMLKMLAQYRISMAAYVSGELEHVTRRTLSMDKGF

How the values were obtained:
Assay in all cases: log2 fold change, soluble protein after heating vs DMSO (PISA); higher = thermal stabilisation; K562 cells, 10 uM, 30 min; active = over 0.2 and 3.5 SD of the protein, either way, in both replicates (recomputed)
[1] = compound: CS(=O)(=O)c1ccc(-c2cnc(N)c(C(=O)Nc3ccccc3)n2)cc1
Method in brief: (§1)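 Aliquots of K562 cells (2×10^6 cells/mL) treated with 10 μM compound for 30 min were heated for 3 min over 48°C-58°C. After pooling and extraction in PBS with 0.5% NP-40 at 4°C, soluble protein from a 21,000xg, 90 min spin was quantified by TMTpro 16plex LC-MS/MS with channel sums equalised. Thermal stability is expressed against control samples, from duplicates, as a log2 fold change.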

crizotinib = compound: C[C@@H](Oc1cc(-c2cnn(C3CCNCC3)c2)cnc1N)c1c(Cl)ccc(F)c1Cl [crizotinib]
Method in brief: as §1

[2] = compound: C[C@@H]1COCCN1C2=NC(=NC(=C2)C3(CC3)S(=O)(=O)C)C4=C5C=CNC5=CC=C4
Method in brief: as §1

[3] = compound: C[C@H](C1=CC=C(C=C1)C(=O)NC2=C3C=CNC3=NC=C2)N
Method in brief: as §1

duvelisib = compound: C[C@H](Nc1ncnc2nc[nH]c12)c1cc2cccc(Cl)c2c(=O)n1-c1ccccc1 [duvelisib]
Method in brief: as §1

gandotinib = compound: Cc1cc(Nc2cc(CN3CCOCC3)c3nc(C)c(Cc4ccc(Cl)cc4F)n3n2)n[nH]1 [gandotinib]
Method in brief: as §1

tozasertib = compound: Cc1cc(Nc2cc(N3CCN(C)CC3)nc(Sc3ccc(NC(=O)C4CC4)cc3)n2)n[nH]1 [tozasertib]
Method in brief: as §1

[4] = compound: Cc1cc(SCc2sc(-c3ccc(C(F)(F)F)cc3)nc2C)ccc1OCC(=O)O
Method in brief: as §1

doramapimod = compound: Cc1ccc(-n2nc(C(C)(C)C)cc2NC(=O)Nc2ccc(OCCN3CCOCC3)c3ccccc23)cc1 [doramapimod]
Method in brief: as §1

ispinesib = compound: Cc1ccc(C(=O)N(CCCN)[C@@H](c2nc3cc(Cl)ccc3c(=O)n2Cc2ccccc2)C(C)C)cc1 [ispinesib]
Method in brief: as §1

Measured: log2 fold change

PITPNA (UniProt Q00169)
inactive: [1] 0.027 | crizotinib 0.042 | [2] 0.002 | [3] -0.042 | duvelisib 0.034 | gandotinib 0.018 | tozasertib 0.001 | [4] -0.012 | doramapimod -0.055 | ispinesib 0.107

PKM (UniProt P14618)
inactive: [1] 0.003 | crizotinib 0.021 | [2] 0.013 | [3] -0.044 | gandotinib -0.013 | [4] -0.029 | doramapimod -0.019 | ispinesib 0.02

PIP (UniProt P12273)
inactive: [1] -0.135 | crizotinib 0.183 | [2] -0.103 | [3] -0.249 | duvelisib -0.167 | gandotinib -0.181 | tozasertib 0.19 | [4] -0.442 | doramapimod -0.163 | ispinesib 0.52

PHF23 (UniProt Q9BUL5)
inactive: [1] 0.009 | crizotinib 0.041 | [2] -0.003 | [3] -0.086 | duvelisib 0.004 | gandotinib 0.025 | tozasertib -0.014 | [4] -0.009 | doramapimod -0.014 | ispinesib -0.018

PITPNB isoform 3 (UniProt P48739)
inactive: [1] 0.089 | crizotinib 0.105 | [2] 0.066 | [3] -0.04 | duvelisib 0.072 | gandotinib 0.042 | tozasertib 0.013 | [4] -0.039 | doramapimod -0.026 | ispinesib 0.18

PICALM (UniProt H0YEY8)
inactive: [1] 0.05 | crizotinib -0.018 | [2] 0.021 | [3] -0.108 | duvelisib -0.098 | gandotinib -0.07 | tozasertib -0.041 | [4] 0.08 | doramapimod -0.043 | ispinesib -0.074

PINX1 (UniProt Q96BK5)
inactive: [1] -0.091 | crizotinib 0.065 | [2] -0.702 | [3] 0.547 | duvelisib -0.182 | gandotinib 0.387 | tozasertib 0.047 | [4] -0.063 | doramapimod 0.176 | ispinesib -0.075

PHB (UniProt P35232)
inactive: [1] 0.031 | crizotinib 0.089 | [2] 0.055 | [3] -0.115 | duvelisib 0.025 | gandotinib -0.027 | tozasertib 0.015 | [4] -0.011 | doramapimod -0.009 | ispinesib 0.02

PHPT1 (UniProt Q9NRX4)
inactive: [1] 0.043 | crizotinib 0.019 | [2] -0.07 | [3] -0.041 | duvelisib 0.029 | gandotinib 0.011 | tozasertib 0.026 | [4] 0.015 | doramapimod -0.015 | ispinesib 0.044

PHF6 (UniProt Q8IWS0)
inactive: [1] -0.103 | crizotinib 0.087 | [2] -0.437 | [3] 0.308 | duvelisib -0.096 | gandotinib 0.313 | tozasertib 0.049 | [4] 0.052 | doramapimod 0.141 | ispinesib -0.113

PIK3R4 (UniProt Q99570)
inactive: [1] 0.166 | crizotinib -0.053 | [2] 0.034 | [3] 0.008 | duvelisib 0.203 | gandotinib 0.058 | tozasertib 0.001 | [4] 0.002 | doramapimod 0.04 | ispinesib -0.024

PFKL isoform 2 (UniProt P17858)
inactive: [1] 0.018 | crizotinib 0.066 | [2] 0.06 | [3] -0.063 | duvelisib 0.018 | gandotinib -0.001 | tozasertib -0.019 | [4] -0.018 | doramapimod -0.02 | ispinesib 0.049
